Taken from: PubChem BioAssay AID686938 (Drosophila RNAi Screening Center, 2013)
The screen tested about 23,000 reagents; shown is a random part of those that have a named target and a result. Over the whole deposit, 75 (0.33%) got an active call. 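Raw plate signals without normalisation; calls rest on plate z-scores that were not deposited; ratio present for only 364 wells.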 A number with no mark means an inactive call. Not given: the dose of the treatment.

Assay: 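Fly genes required for calcium entry once internal stores are emptied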 (primary screen)
System: Drosophila S2R+ cells
Reagents: long dsRNA against Drosophila genes, about 0.25 µg dsRNA per well, roughly 10,000 cells
Duration: 5 days of knock-down before the calcium assay
Challenge: thapsigargin (SERCA pump blocker) to empty calcium stores; entry signal taken 4 min after adding it
Detection: 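Per-well fluo-4 fluorescence in two replicates, unnormalised, measured in resting cells and 4 min after store depletion by the SERCA blocker thapsigargin; ratio of the two present in few wells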
Reading the numbers: calcium entry signal: higher = stronger calcium signal after store depletion; resting calcium signal: higher = higher resting calcium signal
Units: calcium entry signal in fluorescence units; resting calcium signal in fluorescence units
Hit rule: 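Called when the plate z-score of the entry-to-rest ratio, mean of duplicates, falls below −3; wells with low overall dye signal (Fmax z below −2) or more than five off-targets excluded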
Meaning of the calls: active = strongly reduced calcium entry; inactive = no strong reduction

With knock-down of Ype (GeneID 32295) [DRSC20301] the results were calcium entry signal, replicate 1 = 3.78e7; calcium entry signal, replicate 2 = 4.22e7; resting calcium signal, replicate 1 = 1.75e7; resting calcium signal, replicate 2 = 1.86e7.
Fpps (GeneID 36209) [DRSC07429] gave calcium entry signal, replicate 1 = 2.60e7; calcium entry signal, replicate 2 = 2.39e7; resting calcium signal, replicate 1 = 1.11e7; resting calcium signal, replicate 2 = 1.12e7.
Knock-down of Bace (GeneID 34182) [DRSC02197] came out at: calcium entry signal, replicate 1 = 3.96e7; calcium entry signal, replicate 2 = 1.86e7; resting calcium signal, replicate 1 = 1.98e7; resting calcium signal, replicate 2 = 1.07e7.
Depletion of chk (GeneID 35578) [DRSC04994] came out at: calcium entry signal, replicate 1 = 3.97e7; resting calcium signal, replicate 1 = 2.02e7.
After knock-down of CG18304 (GeneID 33969) [DRSC02664], the screen gave calcium entry signal, replicate 1 = 3.58e7; calcium entry signal, replicate 2 = 3.29e7; resting calcium signal, replicate 1 = 1.73e7; resting calcium signal, replicate 2 = 1.55e7.
Against Josd (GeneID 31560) [DRSC18323], the entry reads calcium entry signal, replicate 1 = 3.36e7; calcium entry signal, replicate 2 = 3.23e7; resting calcium signal, replicate 1 = 1.63e7; resting calcium signal, replicate 2 = 1.59e7.
CG31921 (GeneID 319027) [DRSC00013] scored calcium entry signal, replicate 1 = 3.04e7; calcium entry signal, replicate 2 = 3.40e7; resting calcium signal, replicate 1 = 1.66e7; resting calcium signal, replicate 2 = 1.46e7.
CG7271 (GeneID 40021) [DRSC22561] gave calcium entry signal, replicate 1 = 4.49e7; calcium entry signal, replicate 2 = 3.18e7; resting calcium signal, replicate 1 = 2.09e7; resting calcium signal, replicate 2 = 1.34e7.
Against DIP-beta (GeneID 33125) [DRSC20461], the values are calcium entry signal, replicate 1 = 2.81e7; calcium entry signal, replicate 2 = 3.55e7; resting calcium signal, replicate 1 = 1.41e7; resting calcium signal, replicate 2 = 1.59e7.
With knock-down of DIP-beta (GeneID 33125) [DRSC20489], the screen gave calcium entry signal, replicate 1 = 5.37e7; calcium entry signal, replicate 2 = 5.29e7; resting calcium signal, replicate 1 = 2.43e7; resting calcium signal, replicate 2 = 2.33e7.
With knock-down of DIP-beta (GeneID 33125) [DRSC20490] the results were calcium entry signal, replicate 1 = 5.53e7; calcium entry signal, replicate 2 = 4.76e7; resting calcium signal, replicate 1 = 2.29e7; resting calcium signal, replicate 2 = 2.03e7.
With knock-down of DIP-beta (GeneID 33125) [DRSC20505], the screen gave calcium entry signal, replicate 1 = 6.08e7; calcium entry signal, replicate 2 = 2.72e7; resting calcium signal, replicate 1 = 2.42e7; resting calcium signal, replicate 2 = 1.29e7.
Against NiPp1 (GeneID 44748) [DRSC07307], the values are calcium entry signal, replicate 1 = 4.28e7; calcium entry signal, replicate 2 = 4.38e7; resting calcium signal, replicate 1 = 2.00e7; resting calcium signal, replicate 2 = 2.03e7.
Knock-down of gammaTub37C (GeneID 35199) [DRSC03535] gave: calcium entry signal, replicate 1 = 4.53e7; resting calcium signal, replicate 1 = 2.40e7.
Knock-down of Itpr (GeneID 40664) [DRSC12354] resulted in: calcium entry signal, replicate 1 = 3.59e7; calcium entry signal, replicate 2 = 2.98e7; resting calcium signal, replicate 1 = 1.74e7; resting calcium signal, replicate 2 = 1.42e7.
For tty (GeneID 33109) [DRSC20588], the values are calcium entry signal, replicate 1 = 4.58e7; calcium entry signal, replicate 2 = 5.03e7; resting calcium signal, replicate 1 = 2.04e7; resting calcium signal, replicate 2 = 2.11e7.
Knock-down of CG4789 (GeneID 32668) [DRSC19918] resulted in: calcium entry signal, replicate 1 = 3.27e7; calcium entry signal, replicate 2 = 2.88e7; resting calcium signal, replicate 1 = 1.78e7; resting calcium signal, replicate 2 = 1.45e7.
For CG1695 (GeneID 33046) [DRSC20538] the deposit lists calcium entry signal, replicate 1 = 5.15e7; calcium entry signal, replicate 2 = 4.43e7; resting calcium signal, replicate 1 = 2.34e7; resting calcium signal, replicate 2 = 1.92e7.
bw (GeneID 37724) [DRSC04005] gave calcium entry signal, replicate 1 = 1.86e7; calcium entry signal, replicate 2 = 3.30e7; resting calcium signal, replicate 1 = 1.05e7; resting calcium signal, replicate 2 = 1.35e7.
For bw (GeneID 37724) [DRSC04677], the entry reads calcium entry signal, replicate 1 = 4.26e7; resting calcium signal, replicate 1 = 2.24e7.
COX7A (GeneID 50002) [DRSC16514] gave calcium entry signal, replicate 1 = 3.99e7; calcium entry signal, replicate 2 = 1.95e7; resting calcium signal, replicate 1 = 1.99e7; resting calcium signal, replicate 2 = 1.11e7.
